Experimental data reported in patent US20240108734A1, “METHODS FOR TREATING AND AMELIORATING CANCER” (The Regents of the University of California, priority 2021, published 2024).
These are yes or no findings as the source states them, for the method shown. Binding seen in cells or lysates may run through a third protein. Some results given as binding are weak or reduced against the parent protein; the word gives no strength.

Protein sequences, listed by entry. Tags and fused reporters are not part of them.
UniProt Q9NRW3: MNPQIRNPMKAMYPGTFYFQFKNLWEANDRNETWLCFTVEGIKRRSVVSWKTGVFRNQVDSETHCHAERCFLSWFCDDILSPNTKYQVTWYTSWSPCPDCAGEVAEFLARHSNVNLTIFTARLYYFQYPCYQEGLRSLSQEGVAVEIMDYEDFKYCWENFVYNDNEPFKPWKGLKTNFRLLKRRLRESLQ

How the values were obtained:
[1] = target: T1, ADAR1 p150 (adenosine deaminase acting on RNA 1, p150 isoform) (human) (UniProt P55265); assay: co-immunoprecipitation (anti-FLAG beads, Western blot for ADAR1), HEK293T cells
T1 sequence: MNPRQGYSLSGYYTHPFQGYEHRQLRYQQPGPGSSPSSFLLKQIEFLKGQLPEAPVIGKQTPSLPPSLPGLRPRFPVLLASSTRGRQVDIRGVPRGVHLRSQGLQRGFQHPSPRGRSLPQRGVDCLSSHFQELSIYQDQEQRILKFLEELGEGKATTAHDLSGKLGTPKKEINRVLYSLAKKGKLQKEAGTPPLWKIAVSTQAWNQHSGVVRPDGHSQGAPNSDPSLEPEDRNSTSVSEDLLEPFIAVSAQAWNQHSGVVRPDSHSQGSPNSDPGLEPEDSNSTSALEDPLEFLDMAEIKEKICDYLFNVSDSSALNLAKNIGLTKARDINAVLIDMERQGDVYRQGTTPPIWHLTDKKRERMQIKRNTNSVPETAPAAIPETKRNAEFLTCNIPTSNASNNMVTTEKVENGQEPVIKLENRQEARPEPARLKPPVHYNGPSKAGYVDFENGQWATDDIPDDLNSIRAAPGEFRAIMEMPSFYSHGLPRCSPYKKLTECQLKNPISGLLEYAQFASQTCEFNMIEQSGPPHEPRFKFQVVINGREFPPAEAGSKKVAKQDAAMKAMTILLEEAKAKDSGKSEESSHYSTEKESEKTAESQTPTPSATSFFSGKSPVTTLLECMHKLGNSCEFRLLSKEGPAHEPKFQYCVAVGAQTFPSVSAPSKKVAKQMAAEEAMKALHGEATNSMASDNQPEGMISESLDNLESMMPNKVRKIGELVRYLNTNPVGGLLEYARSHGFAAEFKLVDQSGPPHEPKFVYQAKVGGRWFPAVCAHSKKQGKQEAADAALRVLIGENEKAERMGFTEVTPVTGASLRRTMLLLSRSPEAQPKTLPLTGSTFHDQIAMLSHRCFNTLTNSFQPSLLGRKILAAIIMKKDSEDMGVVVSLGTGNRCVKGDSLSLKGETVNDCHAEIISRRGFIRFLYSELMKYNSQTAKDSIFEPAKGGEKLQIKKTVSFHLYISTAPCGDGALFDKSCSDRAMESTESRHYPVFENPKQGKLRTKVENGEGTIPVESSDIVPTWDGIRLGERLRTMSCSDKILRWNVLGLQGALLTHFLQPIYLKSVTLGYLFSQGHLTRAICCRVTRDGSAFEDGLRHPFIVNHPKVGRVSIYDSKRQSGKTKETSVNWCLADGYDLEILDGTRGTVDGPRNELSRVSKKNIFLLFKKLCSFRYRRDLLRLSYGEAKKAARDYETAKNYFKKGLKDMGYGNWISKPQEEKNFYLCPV

[2] = target: T1, ADAR1 p150 (adenosine deaminase acting on RNA 1, p150 isoform) (human); assay: co-immunoprecipitation from transfected HEK293T lysate on anti-FLAG M2 magnetic beads, Western blot probed for ADAR1

APOBEC3C-FLAG (from UniProt Q9NRW3 1-190) (enzyme)
binding [1]: binds | binding [2]: binds
